Laboratory results: the supplement of paper PMC6411743
± gives the standard deviation of the averaged measurements. The list shows a part of the results, in another mix than the full data.

Protein sequences, listed by entry. Tags and fused reporters are not part of them. Lines headed by an entry give the natural chain unless they say otherwise; changes in a name come on top.
UniProt P15498: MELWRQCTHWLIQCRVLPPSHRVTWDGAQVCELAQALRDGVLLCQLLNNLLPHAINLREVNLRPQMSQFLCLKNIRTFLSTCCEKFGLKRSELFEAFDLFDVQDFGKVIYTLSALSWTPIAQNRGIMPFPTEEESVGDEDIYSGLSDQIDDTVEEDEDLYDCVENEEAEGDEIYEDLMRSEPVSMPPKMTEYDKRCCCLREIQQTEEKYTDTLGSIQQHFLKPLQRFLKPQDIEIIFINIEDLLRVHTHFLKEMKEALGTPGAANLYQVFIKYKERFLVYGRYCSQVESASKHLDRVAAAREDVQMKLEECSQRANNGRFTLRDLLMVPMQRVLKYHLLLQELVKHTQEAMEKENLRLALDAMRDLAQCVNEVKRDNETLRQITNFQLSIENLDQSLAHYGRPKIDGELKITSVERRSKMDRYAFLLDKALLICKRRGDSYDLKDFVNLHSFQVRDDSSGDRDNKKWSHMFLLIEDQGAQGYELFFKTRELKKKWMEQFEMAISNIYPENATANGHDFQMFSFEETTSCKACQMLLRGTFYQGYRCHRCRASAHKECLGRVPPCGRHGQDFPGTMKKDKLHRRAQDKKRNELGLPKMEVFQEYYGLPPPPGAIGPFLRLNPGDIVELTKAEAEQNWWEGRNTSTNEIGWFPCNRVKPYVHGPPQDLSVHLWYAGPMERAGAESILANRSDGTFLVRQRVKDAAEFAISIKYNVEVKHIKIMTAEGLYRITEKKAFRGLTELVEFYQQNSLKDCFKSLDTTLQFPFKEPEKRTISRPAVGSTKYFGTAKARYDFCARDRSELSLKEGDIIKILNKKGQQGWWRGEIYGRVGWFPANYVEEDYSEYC
UniProt P00491: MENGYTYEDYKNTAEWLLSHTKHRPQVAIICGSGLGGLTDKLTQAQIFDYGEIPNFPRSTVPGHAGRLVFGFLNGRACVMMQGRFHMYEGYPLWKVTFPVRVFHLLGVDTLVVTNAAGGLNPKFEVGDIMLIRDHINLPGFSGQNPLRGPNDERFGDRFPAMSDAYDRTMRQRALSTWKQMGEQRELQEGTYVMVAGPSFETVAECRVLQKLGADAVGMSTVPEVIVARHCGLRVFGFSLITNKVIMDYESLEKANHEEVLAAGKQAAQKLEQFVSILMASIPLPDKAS
UniProt O95816: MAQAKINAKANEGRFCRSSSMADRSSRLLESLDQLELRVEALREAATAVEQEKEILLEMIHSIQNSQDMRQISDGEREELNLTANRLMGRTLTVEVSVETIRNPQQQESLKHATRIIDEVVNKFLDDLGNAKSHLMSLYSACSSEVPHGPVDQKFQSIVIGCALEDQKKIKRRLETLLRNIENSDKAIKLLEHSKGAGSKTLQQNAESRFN
UniProt P10768: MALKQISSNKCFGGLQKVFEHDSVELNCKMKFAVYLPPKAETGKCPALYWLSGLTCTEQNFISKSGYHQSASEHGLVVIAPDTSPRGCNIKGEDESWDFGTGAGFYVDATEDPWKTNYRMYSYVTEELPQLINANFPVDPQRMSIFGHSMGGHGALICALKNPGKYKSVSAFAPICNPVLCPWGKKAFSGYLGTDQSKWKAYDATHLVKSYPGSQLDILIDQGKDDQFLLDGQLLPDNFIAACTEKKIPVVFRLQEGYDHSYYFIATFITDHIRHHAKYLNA
UniProt P15927: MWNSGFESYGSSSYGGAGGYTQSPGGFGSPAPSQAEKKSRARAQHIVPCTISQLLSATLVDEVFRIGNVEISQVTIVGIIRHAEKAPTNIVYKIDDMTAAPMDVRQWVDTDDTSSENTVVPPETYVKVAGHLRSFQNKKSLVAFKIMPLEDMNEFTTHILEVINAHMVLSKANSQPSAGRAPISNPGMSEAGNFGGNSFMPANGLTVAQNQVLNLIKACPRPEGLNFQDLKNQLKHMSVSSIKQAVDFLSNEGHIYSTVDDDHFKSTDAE
UniProt P04053: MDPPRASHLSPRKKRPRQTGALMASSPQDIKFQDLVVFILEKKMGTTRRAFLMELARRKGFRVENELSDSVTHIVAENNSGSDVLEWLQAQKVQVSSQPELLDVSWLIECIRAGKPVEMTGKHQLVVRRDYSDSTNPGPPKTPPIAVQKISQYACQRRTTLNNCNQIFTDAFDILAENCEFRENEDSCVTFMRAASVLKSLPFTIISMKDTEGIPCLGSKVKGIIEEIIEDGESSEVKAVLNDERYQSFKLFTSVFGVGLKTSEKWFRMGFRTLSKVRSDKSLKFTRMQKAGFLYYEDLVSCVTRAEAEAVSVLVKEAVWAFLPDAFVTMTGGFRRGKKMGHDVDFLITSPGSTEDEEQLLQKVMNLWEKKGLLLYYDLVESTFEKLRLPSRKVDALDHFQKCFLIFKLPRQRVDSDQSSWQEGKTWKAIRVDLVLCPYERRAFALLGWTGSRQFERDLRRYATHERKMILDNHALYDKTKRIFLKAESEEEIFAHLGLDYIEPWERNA
UniProt P14625, whole entry: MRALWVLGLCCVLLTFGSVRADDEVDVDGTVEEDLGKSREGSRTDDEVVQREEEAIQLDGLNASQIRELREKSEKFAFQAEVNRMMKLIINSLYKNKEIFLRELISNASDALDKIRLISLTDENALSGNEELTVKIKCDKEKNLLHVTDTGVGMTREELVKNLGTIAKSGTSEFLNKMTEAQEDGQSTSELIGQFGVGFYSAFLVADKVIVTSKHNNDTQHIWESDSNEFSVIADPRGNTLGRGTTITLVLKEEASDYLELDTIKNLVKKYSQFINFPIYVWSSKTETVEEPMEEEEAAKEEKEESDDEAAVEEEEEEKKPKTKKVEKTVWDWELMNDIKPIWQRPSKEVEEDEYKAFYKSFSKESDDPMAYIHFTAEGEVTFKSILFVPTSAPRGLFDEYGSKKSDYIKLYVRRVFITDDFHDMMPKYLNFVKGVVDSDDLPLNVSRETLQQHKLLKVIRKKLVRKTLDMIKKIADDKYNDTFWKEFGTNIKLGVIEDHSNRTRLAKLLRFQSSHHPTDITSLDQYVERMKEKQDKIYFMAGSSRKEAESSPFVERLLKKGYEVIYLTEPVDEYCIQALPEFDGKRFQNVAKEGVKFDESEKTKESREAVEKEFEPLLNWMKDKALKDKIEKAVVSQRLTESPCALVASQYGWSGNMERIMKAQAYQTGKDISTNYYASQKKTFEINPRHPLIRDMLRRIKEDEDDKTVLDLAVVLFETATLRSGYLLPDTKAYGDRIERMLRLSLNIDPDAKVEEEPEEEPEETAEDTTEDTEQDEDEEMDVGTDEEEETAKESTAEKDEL
UniProt P12814, whole entry: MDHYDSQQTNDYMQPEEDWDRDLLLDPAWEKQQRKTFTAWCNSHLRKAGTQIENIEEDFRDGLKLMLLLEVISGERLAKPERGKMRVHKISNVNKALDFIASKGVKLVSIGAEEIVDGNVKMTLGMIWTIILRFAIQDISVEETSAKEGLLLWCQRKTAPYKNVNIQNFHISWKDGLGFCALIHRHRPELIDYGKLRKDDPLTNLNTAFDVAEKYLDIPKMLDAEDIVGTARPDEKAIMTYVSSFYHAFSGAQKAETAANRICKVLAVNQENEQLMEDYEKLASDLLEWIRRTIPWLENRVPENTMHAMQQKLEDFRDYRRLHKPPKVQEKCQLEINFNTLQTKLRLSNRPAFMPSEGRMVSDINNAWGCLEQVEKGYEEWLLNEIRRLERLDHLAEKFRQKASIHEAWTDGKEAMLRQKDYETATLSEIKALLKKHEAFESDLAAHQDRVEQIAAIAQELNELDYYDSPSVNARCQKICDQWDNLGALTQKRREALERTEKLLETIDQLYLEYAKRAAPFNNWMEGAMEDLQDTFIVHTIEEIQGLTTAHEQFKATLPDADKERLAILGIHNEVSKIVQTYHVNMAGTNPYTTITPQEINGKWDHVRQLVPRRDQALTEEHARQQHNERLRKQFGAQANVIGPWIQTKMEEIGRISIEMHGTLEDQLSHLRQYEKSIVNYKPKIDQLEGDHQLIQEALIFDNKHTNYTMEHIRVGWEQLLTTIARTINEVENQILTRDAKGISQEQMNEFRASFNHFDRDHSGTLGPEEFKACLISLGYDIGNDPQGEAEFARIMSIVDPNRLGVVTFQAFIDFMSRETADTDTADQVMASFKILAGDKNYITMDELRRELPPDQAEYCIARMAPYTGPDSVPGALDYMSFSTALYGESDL
UniProt P13804: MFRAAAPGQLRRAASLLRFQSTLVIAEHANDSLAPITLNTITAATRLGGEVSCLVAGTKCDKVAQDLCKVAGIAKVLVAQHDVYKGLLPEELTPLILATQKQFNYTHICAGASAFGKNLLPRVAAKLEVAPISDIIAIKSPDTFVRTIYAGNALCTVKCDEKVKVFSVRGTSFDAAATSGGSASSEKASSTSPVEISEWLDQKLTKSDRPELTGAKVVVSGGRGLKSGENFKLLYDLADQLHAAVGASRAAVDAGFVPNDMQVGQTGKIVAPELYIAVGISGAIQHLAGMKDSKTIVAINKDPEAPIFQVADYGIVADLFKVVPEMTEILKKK
UniProt P12277: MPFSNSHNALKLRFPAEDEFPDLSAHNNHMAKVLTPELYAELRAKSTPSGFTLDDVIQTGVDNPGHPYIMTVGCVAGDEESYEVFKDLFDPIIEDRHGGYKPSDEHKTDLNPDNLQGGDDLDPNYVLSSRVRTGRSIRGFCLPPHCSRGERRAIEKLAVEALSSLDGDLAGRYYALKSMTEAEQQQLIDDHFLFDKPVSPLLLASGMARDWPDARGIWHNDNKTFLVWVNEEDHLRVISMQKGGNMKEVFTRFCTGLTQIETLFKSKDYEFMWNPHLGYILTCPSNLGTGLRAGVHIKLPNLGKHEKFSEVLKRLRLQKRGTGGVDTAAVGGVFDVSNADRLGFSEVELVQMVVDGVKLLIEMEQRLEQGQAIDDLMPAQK
UniProt P14921: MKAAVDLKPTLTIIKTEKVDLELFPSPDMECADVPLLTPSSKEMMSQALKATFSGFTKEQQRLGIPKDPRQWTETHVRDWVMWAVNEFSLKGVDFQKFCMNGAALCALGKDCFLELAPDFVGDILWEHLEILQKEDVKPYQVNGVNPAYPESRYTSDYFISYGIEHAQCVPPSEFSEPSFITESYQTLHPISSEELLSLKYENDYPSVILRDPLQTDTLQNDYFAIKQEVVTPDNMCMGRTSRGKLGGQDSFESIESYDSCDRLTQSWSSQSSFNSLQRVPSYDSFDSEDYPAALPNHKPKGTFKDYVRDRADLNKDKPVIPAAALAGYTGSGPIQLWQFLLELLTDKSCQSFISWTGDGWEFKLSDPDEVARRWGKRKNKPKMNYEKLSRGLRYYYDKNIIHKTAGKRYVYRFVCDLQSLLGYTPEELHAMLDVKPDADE
UniProt P10155: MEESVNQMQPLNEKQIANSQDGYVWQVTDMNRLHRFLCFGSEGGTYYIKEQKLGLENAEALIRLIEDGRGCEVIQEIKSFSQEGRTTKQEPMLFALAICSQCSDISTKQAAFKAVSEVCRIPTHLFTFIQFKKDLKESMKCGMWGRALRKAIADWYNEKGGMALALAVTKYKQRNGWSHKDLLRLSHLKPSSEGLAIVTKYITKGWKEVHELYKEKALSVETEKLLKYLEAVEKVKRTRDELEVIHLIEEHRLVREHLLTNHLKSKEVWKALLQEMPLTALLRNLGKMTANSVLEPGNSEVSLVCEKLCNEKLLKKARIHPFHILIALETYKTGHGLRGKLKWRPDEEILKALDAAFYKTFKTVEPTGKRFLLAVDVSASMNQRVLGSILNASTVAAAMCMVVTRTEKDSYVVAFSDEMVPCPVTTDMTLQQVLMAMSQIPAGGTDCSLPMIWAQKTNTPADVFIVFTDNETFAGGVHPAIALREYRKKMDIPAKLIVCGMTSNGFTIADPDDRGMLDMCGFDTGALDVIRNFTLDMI
UniProt P05106: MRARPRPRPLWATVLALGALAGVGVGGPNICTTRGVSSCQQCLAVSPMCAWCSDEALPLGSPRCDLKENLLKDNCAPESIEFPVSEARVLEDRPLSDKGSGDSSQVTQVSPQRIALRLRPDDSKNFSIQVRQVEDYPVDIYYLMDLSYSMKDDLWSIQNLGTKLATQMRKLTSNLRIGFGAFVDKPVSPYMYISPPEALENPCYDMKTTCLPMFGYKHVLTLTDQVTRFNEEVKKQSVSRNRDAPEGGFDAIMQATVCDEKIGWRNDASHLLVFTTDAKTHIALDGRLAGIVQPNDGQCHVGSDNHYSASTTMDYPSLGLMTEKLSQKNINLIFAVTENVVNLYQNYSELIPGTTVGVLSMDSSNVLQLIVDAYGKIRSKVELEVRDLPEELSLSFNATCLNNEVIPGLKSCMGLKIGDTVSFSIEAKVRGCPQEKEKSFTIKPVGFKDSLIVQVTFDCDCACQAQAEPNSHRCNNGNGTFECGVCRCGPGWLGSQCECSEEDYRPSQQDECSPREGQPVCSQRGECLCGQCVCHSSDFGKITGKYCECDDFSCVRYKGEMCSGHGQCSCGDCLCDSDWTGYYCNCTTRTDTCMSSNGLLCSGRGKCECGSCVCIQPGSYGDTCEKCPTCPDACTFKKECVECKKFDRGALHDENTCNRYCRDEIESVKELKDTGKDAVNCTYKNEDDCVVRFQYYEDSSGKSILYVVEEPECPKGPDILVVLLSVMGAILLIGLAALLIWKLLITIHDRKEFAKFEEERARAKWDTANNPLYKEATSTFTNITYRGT

Compound: Nc1ncnc2c1ncn2[C@@H]1O[C@H](COP(=O)(O)OP(=O)(O)OP(=O)(O)O)[C@@H](O)[C@H]1O [adenosine triphosphate]
Assay: NP40-soluble protein abundance relative to vehicle (solubility fold change) (ratio); higher = more soluble protein in presence of ATP
How it was run: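 Crude Jurkat lysate, prepared by Dounce homogenisation, was exposed to eight concentrations from 0.1 to 10 mM for 10 min at room temperature and then 3 min at 37 °C. Solubilisation used 0.8% NP40 with benzonase for 60 min at 4 °C, followed by ultracentrifugation and TMT labelling of the supernatant for LC-MS/MS. After vsn normalisation of intensities, each value is the fold change against the detergent-processed vehicle within each replicate, across three independent experiments.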

| Target | NP40-soluble protein abundance (concentration: 1mM) | NP40-soluble protein abundance (concentration: 2mM) | NP40-soluble protein abundance (concentration: 4mM) | NP40-soluble protein abundance (concentration: 6mM) | NP40-soluble protein abundance (concentration: 8mM) | NP40-soluble protein abundance (concentration: 10mM) |
| --- | --- | --- | --- | --- | --- | --- |
| POR (UniProt P16435) | 1.05 ± 0.043 | 1.03 ± 0.04 | 1.01 ± 0.026 | 0.998 ± 0.07 | 1.02 ± 0.063 | 1 ± 0.041 |
| VAV1 (UniProt P15498) | 1.02 ± 0.13 | 1 ± 0.12 | 0.975 ± 0.094 | 0.912 ± 0.14 | 1.02 ± 0.06 | 0.971 ± 0.061 |
| UniProt P10747 and related entries | 0.98 ± 0.019 | 0.961 ± 0.043 | 0.949 ± 0.02 | 1 ± 0.018 | 0.936 ± 0.038 | 0.934 ± 0.034 |
| UniProt P00491 | 0.968 ± 0.12 | 0.976 ± 0.099 | 0.959 ± 0.065 | 0.872 ± 0.16 | 0.961 ± 0.058 | 0.974 ± 0.065 |
| BAG2 (UniProt O95816) | 0.889 ± 0.044 | 0.79 ± 0.065 | 0.764 ± 0.088 | 0.768 ± 0.15 | 0.769 ± 0.092 | 0.755 ± 0.063 |
| ESD (UniProt P10768) | 0.982 ± 0.03 | 0.937 ± 0.041 | 0.897 ± 0.039 | 0.958 ± 0.065 | 0.915 ± 0.043 | 0.917 ± 0.051 |
| UniProt P06126 | 1.01 ± 0.013 | 1.03 ± 0.059 | 0.988 ± 0.034 | 0.963 ± 0.041 | 0.942 ± 0.03 | 0.936 ± 0.055 |
| UCHL3 (UniProt P15374) | 1.08 ± 0.011 | 1.06 ± 0.057 | 1.02 ± 0.049 | 1.06 ± 0.027 | 1.02 ± 0.085 | 0.979 ± 0.055 |
| RPA2 (UniProt P15927) | 0.98 ± 0.021 | 0.9817 ± 0.002 | 0.945 ± 0.033 | 1.006 ± 0.0043 | 0.942 ± 0.033 | 0.944 ± 0.039 |
| QDPR (UniProt P09417) | 0.961 ± 0.054 | 1 ± 0.042 | 0.9907 ± 0.0088 | 0.945 ± 0.058 | 0.965 ± 0.028 | 0.994 ± 0.035 |
| UniProt P12544 and related entries | 1.07 ± 0.25 | 1.08 ± 0.064 | 1.21 ± 0.21 | 1.15 ± 0.12 | 1.29 ± 0.19 | 1.24 ± 0.061 |
| UniProt P09914 and related entries | 1.08 ± 0.078 | 1.11 ± 0.12 | 1.03 ± 0.18 | 1.07 ± 0.2 | 1.06 ± 0.17 | 1.12 ± 0.069 |
| UniProt P04053 and related entries | 1.08 ± 0.12 | 1.05 ± 0.073 | 1.07 ± 0.038 | 0.96 ± 0.13 | 1.09 ± 0.022 | 1.1 ± 0.061 |
| UniProt P06756 and related entries | 0.987 ± 0.082 | 0.994 ± 0.13 | 0.993 ± 0.064 | 1.04 ± 0.11 | 0.988 ± 0.076 | 0.958 ± 0.059 |
| HSP90B1 (UniProt P14625) | 0.941 ± 0.015 | 0.946 ± 0.03 | 0.91 ± 0.019 | 0.933 ± 0.049 | 0.909 ± 0.04 | 0.927 ± 0.049 |
| UniProt P12814 and related entries | 0.976 ± 0.013 | 0.973 ± 0.011 | 0.9535 ± 0.0057 | 0.977 ± 0.031 | 0.9628 ± 0.0044 | 0.96 ± 0.048 |
| ITGA5 (UniProt P08648) | 0.96 ± 0.06 | 0.9552 ± 0.0059 | 0.974 ± 0.026 | 0.955 ± 0.06 | 0.955 ± 0.057 | 0.876 ± 0.049 |
| ETFA (UniProt P13804) | 0.955 ± 0.013 | 0.944 ± 0.027 | 0.92 ± 0.025 | 0.95 ± 0.02 | 0.908 ± 0.035 | 0.922 ± 0.038 |
| CKB (UniProt P12277) | 0.932 ± 0.12 | 1.003 ± 0.0013 | 1.04 ± 0.1 | 1.01 ± 0.036 | 0.996 ± 0.019 | 1 ± 0.055 |
| ETS1 (UniProt P14921) | 0.911 ± 0.0097 | 0.886 ± 0.032 | 0.882 ± 0.02 | 0.8873 ± 0.0059 | 0.878 ± 0.037 | 0.876 ± 0.038 |
| UniProt O96011 and related entries | 0.966 ± 0.086 | 0.927 ± 0.033 | 0.981 ± 0.039 | 0.912 ± 0.066 | 0.9571 ± 0.0058 | 0.97 ± 0.056 |
| UniProt P14316 and related entries | 0.954 ± 0.019 | 0.952 ± 0.06 | 0.916 ± 0.037 | 0.984 ± 0.058 | 0.945 ± 0.048 | 0.919 ± 0.013 |
| UniProt P10155 | 1.02 ± 0.083 | 0.984 ± 0.076 | 0.964 ± 0.057 | 0.941 ± 0.099 | 0.996 ± 0.031 | 0.959 ± 0.057 |
| UniProt P05106 | 0.974 ± 0.025 | 0.978 ± 0.075 | 1 ± 0.048 | 1.03 ± 0.038 | 0.938 ± 0.013 | 0.96 ± 0.031 |
| PARP1 (UniProt P09874) | 1.09 ± 0.06 | 1.13 ± 0.041 | 1.21 ± 0.065 | 1.34 ± 0.082 | 1.47 ± 0.094 | 1.54 ± 0.052 |

Part of the list above, as labelled records:
UniProt P06756 and related entries
  NP40-soluble protein abundance (concentration: 1mM): 0.987 ± 0.082; NP40-soluble protein abundance (concentration: 2mM): 0.994 ± 0.13; NP40-soluble protein abundance (concentration: 4mM): 0.993 ± 0.064; NP40-soluble protein abundance (concentration: 6mM): 1.04 ± 0.11; NP40-soluble protein abundance (concentration: 8mM): 0.988 ± 0.076; NP40-soluble protein abundance (concentration: 10mM): 0.958 ± 0.059
UniProt P14316 and related entries
  NP40-soluble protein abundance (concentration: 1mM): 0.954 ± 0.019; NP40-soluble protein abundance (concentration: 2mM): 0.952 ± 0.06; NP40-soluble protein abundance (concentration: 4mM): 0.916 ± 0.037; NP40-soluble protein abundance (concentration: 6mM): 0.984 ± 0.058; NP40-soluble protein abundance (concentration: 8mM): 0.945 ± 0.048; NP40-soluble protein abundance (concentration: 10mM): 0.919 ± 0.013
